In publication PMC9230395:
Construct, isoform or probe ends are uncertain for at least one entry. Negatives hold for the conditions tested. The comparison behind a weaker result is the experiment's own reference, which may not be listed here.

Experiments:
[1] = system: ZBP1 (recombinant Z-DNA-binding protein); assay: BLI; settings: BLI: 1x PBS (10 mM phosphate) pH 7.2, 10 mM MgCl2, 0.1% BSA, 0.02% Tween-20, 25 C, label: 5'-biotin on strand 3, letters put together from the description
[2] = system: ZBP1 (recombinant Z-DNA-binding protein); assay: EMSA; settings: 6% PAGE (cc-91A), gel at 20 C without MgCl2, letters put together from the description
[3] = 10 mM MgCl2, 2.5 uM ZBP1, 132-nt strand circular, EMSA: 10 mM phosphate pH 7.2, 10 mM MgCl2, 0.25 uM DNA

ATATGCCTAGTCTTCCATGACACTGAGACAACTGGAAACCACTCATGCGTAGATGCGAACTAGCACAGTGAACTCATCCACTAGAACTTGAC / GAAGACTAGGCATATGTCAAGTTGACTTGTACTGTCTGGTAGTCAGCTAGGTAGTACTGTTCTCTAGTGGATGAGTTCACTGTGCTAGTTCGCATCTACGCATGAGTGGTTTCCAGTTGTCTCAGTGTCATG / TTTTTACCTCACTATACTTACATGTTTTTTCTACCAGACAGTACAAGTCA [Bait-cc-91B (cc-91B + lnB50)]
binding result ([1]; 10 mM MgCl2, 400 nM ZBP1 gives ~0.15 nm vs ~2.5 nm for cc-91A, fit failed, strands 1 and 2 circular): binds more weakly

ATATGCCTAGTCTTCCATGACACTGAGACAACTGGAAACCACTCATGCGTAGATGCGAACTAGCACAGTGAACTCATCCACTAGAACTTGAC / GAAGACTAGGCATATGTCAAGTTGACTTGTACTGTCTGGTAGTCAGCTAGGTAGTACTGTTCTCTAGTGGATGAGTTCACTGTGCTAGTTCGCATCTACGCATGAGTGGTTTCCAGTTGTCTCAGTGTCATG [cc-91B (LR-chimera, APP-poor, c92B/c132B)]
binding result ([2]; 10 mM MgCl2, substrate decreases, bands less clear than cc-91A, both strands circular (T4 ligase sealed), EMSA: 10 mM phosphate pH 7.2, 10 mM MgCl2, 0.25 uM DNA): binds more weakly

ATATGCCTAGTCTTCCATGACACTGAGACAACTGGAAACCACTCATGCGTAGATGCGAACTAGCACAGTGAACTCATCCACTAGAACTTGAC / GAAGACTAGGCATATGTCAAGTTGACTTGTACTGTCTGGTAGTCAGCTAGGTAGTACTGTTCTCTAGTGGATGAGTTCACTGTGCTAGTTCGCATCTACGCATGAGTGGTTTCCAGTTGTCTCAGTGTCATG [lc-91B (B-DNA control)]
binding result [2, 3]: no binding

CGTGTGATATAGGTGAACGCGCGTGTGTGTATATGTGTGCGATCGTAGAACTTGTGAACCCTTATACCATGCACGATCGCACATTTCGCACA / GCACACATATACACACACGCGCGTTCACCTATATCACACGTGACTTGTAATTAGTAACTACCAACGTGCGTGTGTGTCAGTCAGCGAAATGTGCGATCGTGCATGGTATAAGGGTTCACAAGTTCTACGATC / TTTTTACCTCACTATACTTACATGTTTTTTGGTAGTTACTAATTACAAGT [Bait-lc-91A (lc-91A + lB50, B-DNA)]
binding result ([1]; 10 mM MgCl2, ~0.06 nm response, almost no binding, strand 2 circular): no binding

CGTGTGATATAGGTGAACGCGCGTGTGTGTATATGTGTGCGATCGTAGAACTTGTGAACCCTTATACCATGCACGATCGCACATTTCGCACA / GCACACATATACACACACGCGCGTTCACCTATATCACACGTGACTTGTAATTAGTAACTACCAACGTGCGTGTGTGTCAGTCAGCGAAATGTGCGATCGTGCATGGTATAAGGGTTCACAAGTTCTACGATC [cc-91A (LR-chimera, APP-rich, c92A/c132A)]
binding result ([2]; 10 mM MgCl2, clear bands at >=1.875 uM ZBP1, both strands circular (T4 ligase sealed), EMSA: 10 mM phosphate pH 7.2, 10 mM MgCl2, 0.25 uM DNA): binds

CGTGTGATATAGGTGAACGCGCGTGTGTGTATATGTGTGCGATCGTAGAACTTGTGAACCCTTATACCATGCACGATCGCACATTTCGCACA / GCACACATATACACACACGCGCGTTCACCTATATCACACGTGACTTGTAATTAGTAACTACCAACGTGCGTGTGTGTCAGTCAGCGAAATGTGCGATCGTGCATGGTATAAGGGTTCACAAGTTCTACGATC [lc-91A (B-DNA control)]
binding result [2, 3]: no binding

CGTGTGATATAGGTGAACGCGCGTGTGTGTATATGTGTGCGATCGTAGAACTTGTGAACCCTTATACCATGCACGATCGCACATTTCGCACA / GCACACATATACACACACGCGCGTTCACCTATATCACACGTGACTTGTAATTAGTAACTACCAACGTGCGTGTGTGTCAGTCAGCGAAATGTGCGATCGTGCATGGTATAAGGGTTCACAAGTTCTACGATC [ll-91A (B-DNA control)]
binding result ([2]; 10 mM MgCl2, 2.5 uM ZBP1, EMSA: 10 mM phosphate pH 7.2, 10 mM MgCl2, 0.25 uM DNA): no binding
